Experimental data taken from paper PMC10163288.
Some of the results follow.

B1: il10ra_site1_normal_mot_HHH_eva_0271_000000006_0001_43_61_H_._HHH_b1_00868_0001_0000100005_0000001_0_af2pred_0001 (protein)
chain: SSSSDLELQQRLAELILELAEELGLNSEEIAEISHEIAHLIANGVSEEELREIVEQLVRELSSSS
B2: il10ra_site1_sap_28_mot_HHH_b2_03220_af2_000000223_0001_23_40_H_._HHH_b2_00648_af2_0001_0000100001_0000001_0_0001_af2pred_0001 (protein)
chain: SSSSNAERRVAELLAEALRLANNGNPEEAEKLVEEAEELARENNDPELERAVEMAKRYIRNSSSS
B3: il10ra_site1_sap_16_mot_HHH_b2_05454_000000273_0001_1_18_H_._HHH_b1_01562_0001_0000500022_0000001_1_0001 (protein)
chain: SSSSSDEEVEELLEEARELAENGNPREAMRVLAEAVRAAYELQDEELLQAVWELVQEIAKSSSSS
B4: il10ra_site1_normal_mot_HHH_b1_00999_000000080_0001_41_55_H_._HHH_b2_05235_0001_0000500028_0000001_0 (protein)
chain: SSSSSSDVEELLEEAQELRERGNPEEALEVLQRAVRLIFELGDEELLQELWELVRKIGSSSSSSS
B5: il10ra_site1_sap_23_mot_HHH_b2_04001_000000102_0001_19_36_H_._HHH_b2_05818_af2_0001_0000500014_0000001_0_0001_af2pred_dldesign_0_af2pred (protein)
chain: SSSSSEFERLYEEAKRLLEEGDLERLAELLRRLAILAQEAKDKEKFDKVTELAIKLMELESSSSS
B6: il10ra_site1_normal_mot_HHH_b2_03425_000000200_0001_22_39_H_._HHH_b1_03120_0001_0000100001_0000001_0 (protein)
chain: SSSSNEEHEELYRRLRKLIELVSEGDEEEAEELLEELERLARELNDFIILFVVRLLKRQLSSSSS
B7: il10ra_site1_sap_23_mot_HHH_b1_02881_000000046_0001_1_20_H_._HHH_b2_07693_0001_0000300021_0000002_0_0001 (protein)
chain: SSSSDELSHEVYELLREAMELAANGNPEKAREVLEEAEEIAEESGSPVMEVLVRNMLRRLSSSSS
B8: il10ra_site1_sap_26_mot_HHH_b2_08004_000000101_0001_1_17_H_._HHH_b1_02361_af2_0001_0000100002_0000001_1_0001 (protein)
chain: SSSSSDEEFFRRIEEFAEEVGDEQILRYIRFMAMAYEMSGDPQVKRFAEQMFRWLEEKEKSSSSS
B9: il10ra_site1_normal_mot_HHH_b2_03764_000000138_0001_1_20_H_._HHH_b2_04981_0001_0000400040_0000002_0_af2pred_0001 (protein)
chain: SSSSDEEFEEVRRLLEEASELDNRGDREEAEKLVEEAIELAREGGNELLTLAAEYLLRIIRSSSS
B10: il10ra_site1_normal_mot_8756ee2cf497b5429c717dfc0c0bcfd6_0001_000000186_0001_1_13_H_._HHH_b2_01109_0001_0000300018_0000001_0_af2pred_0001 (protein)
chain: SSSSSAAERVAKLIRKAIELLRNGNPEEAREVLEEAEEVAEEGNNLNLRAVLKFLKERVNSSSSS
B11: il10ra_site1_sap_21_mot_HHH_b1_03314_af2_000000278_0001_42_55_H_._HHH_b2_06669_af2_0001_0000100001_0000001_0_0001 (protein)
chain: SSSSNDEVYEIIRRAIELLSEGDPEEAKKLVEEVKELAEEENSPVMEVLVRFLERMVEETSSSSS
B12: il10ra_site1_sap_18_mot_HHH_b2_01032_000000296_0001_1_18_H_._HHH_b2_04729_0001_0000300020_0000002_0_0001 (protein)
chain: SSSSSEAIRRIYELSRRAVELDSEGNPEEAREVVEEAIELAEEEGDPVLLRVLEHILKLLSSSSS
B13: il10ra_site1_sap_17_mot_HHH_b2_07006_000000108_0001_1_19_H_._HHH_b2_04110_0001_0000200021_0000001_0_0001 (protein)
chain: SSSSSDEVYELLQELVEAVSDGDEELFEELYERIRELVEEENNPTMRWSLEFLERDFKVRKSSSS
B14: il10ra_site1_sap_28_mot_HHH_b1_05937_af2_000000262_0001_20_37_H_._HHH_b2_07271_af2_0001_0000200012_0000001_0_0001 (protein)
chain: SSSSSDEEEQEIKALLWFAKWIPNPDAARIALERALRLAEELGNEELLEEAERLLEELNSSSSSS
B15: il10ra_site1_normal_mot_HHH_b2_00475_000000107_0001_44_57_H_._HHH_b1_05905_af2_0001_0000300009_0000001_0 (protein)
chain: SSSSDEFLRILFRLVRAAANNDEELLEELLEILEELLKHIEDEELRRYAEIALHFVRAQLESSSS
B16: il10ra_site1_sap_14_mot_HHH_b1_02896_af2_000000065_0001_1_17_H_._HHH_b1_03031_af2_0001_0000100002_0000003_0_0001_af2pred_0001 (protein)
chain: SSSSDEEAEEIIEQIEELLKRGNLHEAIRLIRELAKLVHELGDQELAEKVRELSREALKLSSSSS
B17: il10ra_site1_normal_mot_HHH_b1_02062_000000185_0001_1_20_H_._HHH_b2_00165_0001_0000200025_0000001_0 (protein)
chain: SSSSSDKSQELYELSREAAELDSEGNPEEAERLAEEAYELAEEEGSPLLFTIEYLLKHIRSSSSS
B18: il10ra_site1_normal_mot_HHH_b2_07442_000000239_0001_40_54_H_._HHH_b1_08410_0001_0000200019_0000001_1 (protein)
chain: SSSSSEELYEALRRLAELDTKGDEEEFERLVEEAERLAEELGDETFLIQIEFLLRIFREALSSSS
B19: il10ra_site1_normal_mot_HHH_b2_02053_af2_000000006_0001_3_19_H_._HHH_b1_02506_0001_0000200015_0000001_0 (protein)
chain: SSSSSDRDEEVYELIREALELRARGNPEEAREVLEEAEKLAEEANNFAALFAVRLALRDLSSSSS
B20: il10ra_site1_normal_mot_ems_3hC_416_0001_000000048_0001_1_19_H_._HHH_b1_01643_af2_0001_0000300024_0000001_0 (protein)
chain: SSSSSEENQEALELSQEAFRLLLRGNEEEAKELLEEALELAKKGGNPRLARQIEELLRSLNSSSS
B21: il10ra_site1_sap_24_mot_HHH_b1_05099_000000057_0001_40_58_H_._HHH_b1_01519_0001_0000200010_0000001_0_0001 (protein)
chain: SSSSSREAYELARRIVELILEGNPEEAEELLEELERIVRERGDQLMEFIVRLLEEQLRRLRSSSS
B22: il10ra_site1_normal_mot_HHH_b1_05056_000000217_0001_1_20_H_._HHH_b2_03821_0001_0000200015_0000001_0 (protein)
chain: SSSSSDEEYRERVEELLEEAQEIEDQEEVARLILEAIRLAYEANDQELLQLIWEVVRELTSSSSS
B23: il10ra_site1_normal_mot_HHH_b2_08186_000000021_0001_43_56_H_._HHH_b2_06806_af2_0001_0000100007_0000002_0 (protein)
chain: SSSSDEEQEELEKLLKELEELIKEGDRERFLRLLQEVLRLAYRLSDEEALRRVWELLREFASSSS
B24: il10ra_site1_normal_mot_HHH_b2_00984_000000042_0001_1_20_H_._ems_p1-16H-GBL-16H-GABBL-15H_0053_0001_0001_0001_0001_0000400027_0000001_0 (protein)
chain: SSSSSSEIVELALKLARLALEKGDEEALQVVWEAIQAWARGELSEEEVKELLEEAEELLSSSSSS
B25: il10ra_site1_sap_16_mot_HHH_b2_00612_000000251_0001_1_14_H_._HHH_b1_01579_af2_0001_0000400023_0000001_0_0001 (protein)
chain: SSSSSNEEFLELLQEAIRLAFRNSDEELLQALWRLAKEYGEEGDEKYREELEELIEEVGSSSSSS
B26: il10ra_site1_normal_mot_HHH_b2_08265_af2_000000206_0001_22_38_H_._HHH_b2_04256_0001_0000100002_0000001_0 (protein)
chain: SSSSSSSDLEELEREIEEALEEGDRELVLRLLQELLRLAFRLRDQEAIRFVWEVARELSSSSSSS
B27: il10ra_site1_normal_mot_HHH_b2_03220_af2_000000223_0001_23_40_H_._HHH_b1_07014_af2_0001_0000800025_0000001_0 (protein)
chain: SSSSDDASEEVWELLRRILELLAEGDEEEAEELLRRAKELAEEINSPVFETTLRLLEREISSSSS
B28: il10ra_site1_normal_mot_HHH_b2_07144_000000289_0001_1_18_H_._HHH_b1_01561_af2_0001_0000300017_0000001_0 (protein)
chain: SSSSNEVHEVYRLSREILRLIREGDEEQAEKLLEEVRELAEELNNFLLRFIVRALQRALNSSSSS
B29: il10ra_site1_sap_26_mot_9c3e5e2d2b9ffb70dc788f52fbfab6d5_0001_1_000000198_0001_1_14_H_._HHH_b1_03834_0001_0000100001_0000001_0_0001 (protein)
chain: SSSSSDEEEERIEELEEEIRQIDDPREFVRLLLELVRLAFQSRDPEALQLAMELARELVSSSSSS
B30: il10ra_site1_normal_mot_HHH_b2_07521_000000141_0001_20_37_H_._HHH_b2_04176_0001_0000400030_0000001_0 (protein)
chain: SSSSDRYVELAIKFAKALIKNGDLEAARRLLEAAAQIAEKLNNPELLEEIQELIKEVEELGSSSS
B31: il10ra_site1_sap_17_mot_HHH_b2_00076_000000055_0001_40_55_H_._HHH_b1_01022_af2_0001_0000200011_0000001_0_0001 (protein)
chain: SSSSTRYEEVEKIIREALELAENGDPEEAEELLRRLEEKLEELGDRVVLHSVRHALRDVEQSSSS
B32: il10ra_site1_sap_12_mot_e1dd4851c59bc1cdde016f988f6856bd_0001_1_000000200_0001_16_31_H_._HEEHE_3255_0001_0000100006_0000001_0_0001 (protein)
chain: SSSSSTEEALENMIESLELALELGDEHYIENALRFLELLARYLKDEEAERVVEEVKRELNSSSSS
B33: il10ra_site1_sap_16_mot_HHH_b2_02463_af2_000000222_0001_1_19_H_._HHH_b2_03785_0001_0000100002_0000002_0_0001 (protein)
chain: SSSSSEEEIEELLRRIKELIEEGDREEAHELLRRAIYLAARLNDPELYEKVLQLYLLLQRLSSSS
B34: il10ra_site1_normal_mot_HHH_b1_00929_000000068_0001_1_20_H_._HHH_b2_05703_0001_0000400028_0000001_0 (protein)
chain: SSSSSLERIWELLRRALELAAEGDPELEEEAKELVEEAKELARDPFQRSNIRLVEEQVERSSSSS
B35: il10ra_site1_normal_mot_HHH_b2_07569_000000265_0001_38_56_H_._HHH_b2_02901_0001_0000200009_0000001_0 (protein)
chain: SSSSDEEREEVEELLEEAKEIEDPEERIEVLLEATQLALEIQDPEAVQLVWRAAKELFKKSSSSS
B36: il10ra_site1_normal_mot_HHH_b1_05056_000000217_0001_1_20_H_._HHH_b2_02768_0001_0000400021_0000001_1 (protein)
chain: SSSSSSDVEERVEELLEEAEEIEDPREAARVLLEALRFALQASDERALQLVWEVVKRISSSSSSS
B37: il10ra_site1_sap_13_mot_HHH_b2_06664_af2_000000263_0001_19_36_H_._1c46792b9528a305c301eb4762002c6b_0001_0001_0000100003_0000001_0_0001_af2pred_0001 (protein)
chain: SSSSSDERDELAFEHLLWSAKNSDNEQLIRAALRFAREAAEKLNDPELEKEVEKLEEELSSSSSS

Each binder was assayed against il10ra, Q13651 (assay: yeast display titration).

Binder | apparent Kd
B1 | inactive: no binding seen
B2 | inactive: no binding seen
B3 | inactive: no binding seen
B4 | inactive: no binding seen
B5 | inactive: no binding seen
B6 | inactive: no binding seen
B7 | inactive: no binding seen
B8 | inactive: > 255 nM
B9 | inactive: no binding seen
B10 | inactive: no binding seen
B11 | inactive: no binding seen
B12 | inactive: no binding seen
B13 | inactive: no binding seen
B14 | inactive: no binding seen
B15 | inactive: no binding seen
B16 | inactive: no binding seen
B17 | inactive: no binding seen
B18 | inactive: no binding seen
B19 | inactive: no binding seen

Binder | apparent Kd
B20 | inactive: no binding seen
B21 | inactive: no binding seen
B22 | inactive: no binding seen
B23 | inactive: no binding seen
B24 | inactive: no binding seen
B25 | inactive: no binding seen
B26 | inactive: no binding seen
B27 | inactive: > 201 nM
B28 | inactive: no binding seen
B29 | inactive: no binding seen
B30 | inactive: no binding seen
B31 | inactive: no binding seen
B32 | inactive: no binding seen
B33 | inactive: no binding seen
B34 | inactive: no binding seen
B35 | inactive: no binding seen
B36 | inactive: no binding seen
B37 | inactive: no binding seen

No new results follow: entries from further up.
Binder | apparent Kd
B4 | inactive: no binding seen
B5 | inactive: no binding seen
